# Experimental data: PubChem BioAssay AID1508597 (Cure First, 2020)
# Assay: 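Genes whose silencing sensitises or protects ovarian cancer cells against rucaparib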 (primary screen)
# System: human ovarian carcinoma lines grown from tumours: OCI-P5x (papillary serous) and OCI-C5x (clear cell)
# Reagents: siRNA pool against human genes, 1.25 pmol siRNA per well
# Time to read-out: 72 h or 96 h, depending on the cell culture
# Challenge: rucaparib 20 µM (about IC30) or vehicle, present until read-out
# Rucaparib or vehicle: Rucaparib
# Cell line: OCI-P5x (serous)
# Read-out: 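Luminescent ATP-based viability assay read 72 or 96 h after transfection, depending on culture, given as normalised percent viability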
# Scale: viability, normalised: higher = more viable cells remaining
# Rule for the call: 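a well counts as a hit if its normalised viability is under 80 percent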
# Calls: active = viability under 80%; inactive = viability 80% or more
# Shown is an unselected part of the about 2,100 reagents, in one setting of the screen. 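Calls flag viability under 80% in either arm, not effects specific to rucaparib; the reference for percent is not stated.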 A reagent listed more than once was tested more than once; the source does not tell the runs apart. The record does not give: the 100% reference.
gene,technical replicate,"viability, normalised (%)",call
ENPP6,1,57.1,active
ENPP6,2,54.6,active
ENPP6,3,71.5,active
SMG1,1,98.4,inactive
SMG1,2,98.4,inactive
SMG1,3,105,inactive
ETNK1,1,80.7,inactive
ETNK1,2,72.9,active
ETNK1,3,74.2,active
ARID1B,1,83.9,inactive
ARID1B,2,80.4,inactive
ARID1B,3,70.9,active
HIRIP3,1,68.2,active
HIRIP3,2,58.1,active
HIRIP3,3,54.5,active
SIRT4,1,38.8,active
SIRT4,2,54.8,active
SIRT4,3,56,active
ERRFI1,1,54.7,active
ERRFI1,2,63.5,active
ERRFI1,3,70.4,active
NEK5,1,90.5,inactive
NEK5,2,100,inactive
NEK5,3,74.6,active
MED29,1,43.4,active
MED29,2,42.8,active
MED29,3,49.4,active
MAP2K2,1,88.3,inactive
MAP2K2,2,83.8,inactive
MAP2K2,3,88.9,inactive
NLGN1,1,33.4,active
NLGN1,2,27.1,active
NLGN1,3,25.2,active
BTAF1,1,60.8,active
BTAF1,2,66.8,active
BTAF1,3,63.1,active
DDX5,1,66.8,active
DDX5,1,71.1,active
DDX5,2,76.2,active
DDX5,2,103,inactive
DDX5,3,85.2,inactive
DDX5,3,104,inactive
ACTR5,1,60.3,active
ACTR5,2,62.5,active
ACTR5,3,57.7,active
NEK8,1,79.4,active
NEK8,2,86.5,inactive
NEK8,3,52.5,active
WNK4,1,58.1,active
WNK4,2,59.8,active
WNK4,3,65.2,active
FASTK,1,82.4,inactive
FASTK,2,76.5,active
FASTK,3,64.4,active
H4C1,1,78.5,active
H4C1,1,76.9,active
H4C1,2,64.1,active
H4C1,2,72.3,active
H4C1,3,93.8,inactive
H4C1,3,63,active
POLR2E,1,45.5,active
POLR2E,2,65.4,active
POLR2E,3,46.2,active
SREBF1,1,63.6,active
SREBF1,2,62.5,active
SREBF1,3,46.8,active
TREX1,1,67.1,active
TREX1,2,93.6,inactive
TREX1,3,61.1,active
ING3,1,54.1,active
ING3,2,43.4,active
ING3,3,27.4,active
PRMT5,1,49.6,active
PRMT5,2,47.7,active
PRMT5,3,45,active
